The list shows a part of the results.
Assays:
Test in all cases: log2 fold change, soluble protein after heating vs DMSO (PISA); higher = thermal stabilisation; K562 cells, 10 uM, 30 min; active = over 0.2 and 3.5 SD of the protein, either way, in both replicates (recomputed)
[1] = compound: C1=CC=C(C=C1)[C@H](COC2=CC3=C(C=C2)NC(=O)N3)NC(=O)C4=CC=CN(C4=O)CC5=CC(=C(C=C5)F)F
Outline: (§1)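 Quantification of soluble protein used TMTpro 16plex LC-MS/MS, with channel sums equalised. Samples were the supernatant after 21,000xg for 90 min of pooled aliquots from K562 cells (2×10^6 cells/mL) treated with 10 μM compound for 30 min, heated for 3 min over 48°C-58°C, and extracted in PBS with 0.5% NP-40 at 4°C. Values, from duplicates, describe thermal stability against control samples on a log2 fold-change scale.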

Amino acid sequences for entries named in this document (tags omitted). A change or cut given only in a name is not applied to a line headed by its entry.
UniProt Q7Z401: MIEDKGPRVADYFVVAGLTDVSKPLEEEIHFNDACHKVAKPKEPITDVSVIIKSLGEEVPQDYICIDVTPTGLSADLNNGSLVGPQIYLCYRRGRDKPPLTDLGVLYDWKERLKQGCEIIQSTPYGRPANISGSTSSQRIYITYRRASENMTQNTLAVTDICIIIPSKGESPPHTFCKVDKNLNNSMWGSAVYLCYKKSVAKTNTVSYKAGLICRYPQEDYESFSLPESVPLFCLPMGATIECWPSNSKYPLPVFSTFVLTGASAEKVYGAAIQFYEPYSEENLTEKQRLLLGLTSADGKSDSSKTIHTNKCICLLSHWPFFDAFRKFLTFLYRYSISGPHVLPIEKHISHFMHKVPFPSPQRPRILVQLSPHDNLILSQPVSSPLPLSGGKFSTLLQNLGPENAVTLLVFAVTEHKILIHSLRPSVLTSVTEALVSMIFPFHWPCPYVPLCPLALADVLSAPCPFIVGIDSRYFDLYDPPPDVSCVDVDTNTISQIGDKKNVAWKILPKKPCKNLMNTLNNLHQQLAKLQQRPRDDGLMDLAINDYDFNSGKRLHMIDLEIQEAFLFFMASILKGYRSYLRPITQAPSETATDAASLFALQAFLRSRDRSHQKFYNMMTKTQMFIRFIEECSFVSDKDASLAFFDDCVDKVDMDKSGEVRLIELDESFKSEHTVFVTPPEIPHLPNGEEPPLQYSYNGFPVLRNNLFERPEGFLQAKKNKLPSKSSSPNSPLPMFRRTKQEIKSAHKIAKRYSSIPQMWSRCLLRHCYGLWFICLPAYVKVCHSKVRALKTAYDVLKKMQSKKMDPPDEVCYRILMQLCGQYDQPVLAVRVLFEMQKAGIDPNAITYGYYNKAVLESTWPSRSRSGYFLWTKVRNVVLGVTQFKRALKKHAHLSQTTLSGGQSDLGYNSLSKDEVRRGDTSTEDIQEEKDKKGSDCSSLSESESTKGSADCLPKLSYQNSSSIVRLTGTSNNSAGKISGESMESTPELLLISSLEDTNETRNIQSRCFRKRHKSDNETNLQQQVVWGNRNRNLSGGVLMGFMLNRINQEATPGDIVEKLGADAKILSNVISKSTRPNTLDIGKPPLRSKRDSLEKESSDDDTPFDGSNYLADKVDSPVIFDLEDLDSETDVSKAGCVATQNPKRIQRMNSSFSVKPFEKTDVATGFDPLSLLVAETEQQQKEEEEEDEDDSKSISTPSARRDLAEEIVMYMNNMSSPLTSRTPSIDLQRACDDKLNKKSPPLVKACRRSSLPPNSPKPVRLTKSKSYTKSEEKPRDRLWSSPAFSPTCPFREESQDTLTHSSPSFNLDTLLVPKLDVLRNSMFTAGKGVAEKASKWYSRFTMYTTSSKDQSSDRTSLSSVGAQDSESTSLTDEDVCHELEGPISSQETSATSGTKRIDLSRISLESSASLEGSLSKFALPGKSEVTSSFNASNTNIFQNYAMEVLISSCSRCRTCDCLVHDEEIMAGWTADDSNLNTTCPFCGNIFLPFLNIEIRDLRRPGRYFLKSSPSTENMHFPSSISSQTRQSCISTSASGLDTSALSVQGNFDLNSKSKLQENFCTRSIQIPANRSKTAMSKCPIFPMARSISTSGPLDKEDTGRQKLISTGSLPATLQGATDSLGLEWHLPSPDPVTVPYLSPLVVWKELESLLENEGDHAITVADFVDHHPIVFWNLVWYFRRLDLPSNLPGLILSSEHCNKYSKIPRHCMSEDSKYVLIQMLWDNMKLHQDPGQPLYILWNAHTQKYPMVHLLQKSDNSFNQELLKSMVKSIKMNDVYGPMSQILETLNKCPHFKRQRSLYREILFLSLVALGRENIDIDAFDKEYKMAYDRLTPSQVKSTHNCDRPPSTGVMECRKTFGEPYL
UniProt Q9BUQ8: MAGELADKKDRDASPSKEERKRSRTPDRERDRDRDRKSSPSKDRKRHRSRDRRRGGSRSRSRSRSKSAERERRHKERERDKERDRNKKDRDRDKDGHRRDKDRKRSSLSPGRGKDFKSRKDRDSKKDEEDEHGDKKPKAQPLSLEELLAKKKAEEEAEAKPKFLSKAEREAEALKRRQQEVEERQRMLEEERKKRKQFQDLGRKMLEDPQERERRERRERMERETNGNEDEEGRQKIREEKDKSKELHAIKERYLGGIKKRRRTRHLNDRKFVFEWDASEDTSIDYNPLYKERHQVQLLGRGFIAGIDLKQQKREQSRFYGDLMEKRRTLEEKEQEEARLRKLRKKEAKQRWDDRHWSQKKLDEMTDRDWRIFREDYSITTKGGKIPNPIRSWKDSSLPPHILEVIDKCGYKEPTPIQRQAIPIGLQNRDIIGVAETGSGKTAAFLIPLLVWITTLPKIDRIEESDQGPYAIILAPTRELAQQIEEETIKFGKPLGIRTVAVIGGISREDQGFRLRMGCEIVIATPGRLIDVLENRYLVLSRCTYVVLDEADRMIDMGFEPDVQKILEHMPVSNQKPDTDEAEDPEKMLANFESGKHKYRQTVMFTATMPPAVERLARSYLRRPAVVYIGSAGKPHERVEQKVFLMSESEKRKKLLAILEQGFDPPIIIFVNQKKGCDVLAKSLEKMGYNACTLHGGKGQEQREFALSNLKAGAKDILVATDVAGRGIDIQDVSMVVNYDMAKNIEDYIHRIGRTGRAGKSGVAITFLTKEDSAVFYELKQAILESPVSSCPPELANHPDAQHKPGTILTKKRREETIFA
UniProt P17661, whole entry, looked up: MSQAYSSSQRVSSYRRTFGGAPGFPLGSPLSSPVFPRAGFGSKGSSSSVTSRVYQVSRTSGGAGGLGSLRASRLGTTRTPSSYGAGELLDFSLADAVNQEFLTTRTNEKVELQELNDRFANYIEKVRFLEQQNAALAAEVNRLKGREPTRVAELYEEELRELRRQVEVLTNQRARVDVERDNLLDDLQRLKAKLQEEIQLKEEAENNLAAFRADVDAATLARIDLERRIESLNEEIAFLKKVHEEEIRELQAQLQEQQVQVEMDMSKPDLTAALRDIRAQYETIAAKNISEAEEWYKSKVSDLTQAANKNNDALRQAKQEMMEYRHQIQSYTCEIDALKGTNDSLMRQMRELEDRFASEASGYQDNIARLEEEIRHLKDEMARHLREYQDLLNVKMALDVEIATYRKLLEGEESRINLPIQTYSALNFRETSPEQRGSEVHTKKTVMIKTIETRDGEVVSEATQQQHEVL
UniProt Q9P265: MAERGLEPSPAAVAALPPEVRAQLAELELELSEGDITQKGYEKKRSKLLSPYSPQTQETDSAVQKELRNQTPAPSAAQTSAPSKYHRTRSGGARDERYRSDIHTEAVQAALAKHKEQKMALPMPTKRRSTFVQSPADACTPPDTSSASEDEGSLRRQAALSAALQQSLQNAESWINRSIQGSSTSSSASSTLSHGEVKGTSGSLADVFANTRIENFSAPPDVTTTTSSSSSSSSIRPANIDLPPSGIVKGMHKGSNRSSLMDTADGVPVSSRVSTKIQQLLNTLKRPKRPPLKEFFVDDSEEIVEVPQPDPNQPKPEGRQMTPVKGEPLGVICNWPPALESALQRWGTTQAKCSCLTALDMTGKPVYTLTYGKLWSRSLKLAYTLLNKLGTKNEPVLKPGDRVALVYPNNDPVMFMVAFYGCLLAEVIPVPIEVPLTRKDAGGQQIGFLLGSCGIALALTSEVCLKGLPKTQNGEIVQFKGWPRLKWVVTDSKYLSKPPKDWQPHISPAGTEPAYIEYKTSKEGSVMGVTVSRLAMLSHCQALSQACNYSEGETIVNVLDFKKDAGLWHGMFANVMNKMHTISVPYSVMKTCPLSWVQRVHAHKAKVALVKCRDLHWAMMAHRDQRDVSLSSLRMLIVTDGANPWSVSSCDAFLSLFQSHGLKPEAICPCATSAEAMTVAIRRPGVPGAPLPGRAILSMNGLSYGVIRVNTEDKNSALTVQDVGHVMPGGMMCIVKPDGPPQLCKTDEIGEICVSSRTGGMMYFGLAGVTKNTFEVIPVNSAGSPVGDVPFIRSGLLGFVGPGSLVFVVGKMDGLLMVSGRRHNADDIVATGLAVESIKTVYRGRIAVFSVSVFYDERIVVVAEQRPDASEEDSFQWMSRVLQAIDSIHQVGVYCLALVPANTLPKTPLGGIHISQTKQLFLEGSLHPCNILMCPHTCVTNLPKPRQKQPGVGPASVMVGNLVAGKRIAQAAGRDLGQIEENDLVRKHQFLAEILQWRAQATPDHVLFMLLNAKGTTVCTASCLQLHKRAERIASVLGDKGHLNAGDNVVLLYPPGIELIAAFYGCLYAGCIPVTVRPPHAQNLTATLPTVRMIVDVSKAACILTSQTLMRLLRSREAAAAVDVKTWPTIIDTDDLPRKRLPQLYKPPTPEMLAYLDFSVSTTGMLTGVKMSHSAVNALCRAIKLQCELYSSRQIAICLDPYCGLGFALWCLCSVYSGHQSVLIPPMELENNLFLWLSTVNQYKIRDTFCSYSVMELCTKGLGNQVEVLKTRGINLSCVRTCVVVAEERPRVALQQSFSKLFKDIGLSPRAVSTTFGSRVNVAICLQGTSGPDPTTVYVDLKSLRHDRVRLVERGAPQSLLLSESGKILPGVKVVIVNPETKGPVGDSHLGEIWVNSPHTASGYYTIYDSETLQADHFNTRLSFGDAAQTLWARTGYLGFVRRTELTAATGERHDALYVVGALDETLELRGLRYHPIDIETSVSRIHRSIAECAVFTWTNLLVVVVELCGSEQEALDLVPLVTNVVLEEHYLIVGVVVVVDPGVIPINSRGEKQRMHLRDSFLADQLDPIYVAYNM
UniProt Q16854: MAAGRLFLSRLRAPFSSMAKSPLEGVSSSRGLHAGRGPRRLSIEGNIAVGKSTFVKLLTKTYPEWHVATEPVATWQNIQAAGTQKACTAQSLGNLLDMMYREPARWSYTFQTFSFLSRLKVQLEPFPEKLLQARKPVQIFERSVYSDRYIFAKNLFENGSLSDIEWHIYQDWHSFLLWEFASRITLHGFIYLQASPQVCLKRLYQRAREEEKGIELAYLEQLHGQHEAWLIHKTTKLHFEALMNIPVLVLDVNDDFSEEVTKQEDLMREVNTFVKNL
UniProt Q08211, whole entry, looked up: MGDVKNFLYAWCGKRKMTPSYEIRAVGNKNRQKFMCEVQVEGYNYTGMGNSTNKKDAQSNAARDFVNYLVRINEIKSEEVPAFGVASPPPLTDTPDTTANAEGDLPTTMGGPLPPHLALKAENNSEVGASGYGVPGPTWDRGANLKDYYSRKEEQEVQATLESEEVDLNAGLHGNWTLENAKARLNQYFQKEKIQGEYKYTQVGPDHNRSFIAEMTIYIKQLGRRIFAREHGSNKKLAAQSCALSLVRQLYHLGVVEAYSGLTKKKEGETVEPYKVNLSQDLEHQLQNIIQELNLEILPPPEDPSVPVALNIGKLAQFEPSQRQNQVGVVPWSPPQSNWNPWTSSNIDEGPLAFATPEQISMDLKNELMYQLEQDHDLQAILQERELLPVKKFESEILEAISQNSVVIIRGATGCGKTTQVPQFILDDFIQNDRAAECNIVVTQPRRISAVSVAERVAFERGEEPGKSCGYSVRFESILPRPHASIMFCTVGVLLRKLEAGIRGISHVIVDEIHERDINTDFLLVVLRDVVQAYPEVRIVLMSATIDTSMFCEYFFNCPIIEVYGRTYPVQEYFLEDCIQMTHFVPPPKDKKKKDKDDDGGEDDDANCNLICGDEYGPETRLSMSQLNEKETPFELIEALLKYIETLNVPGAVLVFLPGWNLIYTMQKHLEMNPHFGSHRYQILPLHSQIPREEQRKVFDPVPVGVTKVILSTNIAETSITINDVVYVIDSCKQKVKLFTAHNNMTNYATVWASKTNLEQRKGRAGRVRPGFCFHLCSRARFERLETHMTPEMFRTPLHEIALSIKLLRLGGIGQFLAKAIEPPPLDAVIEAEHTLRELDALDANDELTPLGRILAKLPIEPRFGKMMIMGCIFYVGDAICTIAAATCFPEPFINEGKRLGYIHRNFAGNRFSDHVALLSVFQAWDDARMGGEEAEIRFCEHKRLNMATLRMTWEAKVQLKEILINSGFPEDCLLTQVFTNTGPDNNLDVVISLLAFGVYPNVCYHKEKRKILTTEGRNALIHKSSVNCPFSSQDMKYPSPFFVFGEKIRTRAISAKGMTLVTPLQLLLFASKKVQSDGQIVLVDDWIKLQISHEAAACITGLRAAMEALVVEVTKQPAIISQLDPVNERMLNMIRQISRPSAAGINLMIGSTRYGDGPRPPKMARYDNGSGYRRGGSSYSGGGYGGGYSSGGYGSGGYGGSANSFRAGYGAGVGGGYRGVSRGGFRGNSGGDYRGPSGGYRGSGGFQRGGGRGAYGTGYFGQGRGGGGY

[2] = compound: CC1=C(SC2=C1C(=N[C@H](C3=NN=C(N32)C)CC(=O)N)C4=CC=C(C=C4)Cl)C
Outline: as §1

[3] = compound: CC1=C2C(=CC=C1)N=C(N(C2=O)C3=CC=CC=C3C)CN4C=NC5=C(N=CN=C54)N
Outline: as §1

[4] = compound: Cc1sc2c(c1C)C(c1ccc(Cl)cc1)=N[C@@H](CC(=O)OC(C)(C)C)c1nnc(C)n1-2
Outline: as §1

[5] = compound: c1ccc([C@@H]2C[C@H]2NC2CCNCC2)cc1
Outline: as §1

Measured: log2 fold change

DFFA (UniProt O00273)
inactive: [1] -0.02 | [2] 0.017 | [3] 0.042 | [4] -0.031 | [5] 0.01

DDX56 (UniProt Q9NY93)
inactive: [1] 0.092 | [2] -0.231 | [3] -0.061 | [4] 0.094 | [5] 0.001

DDI2 isoform 3 (UniProt Q5TDH0)
inactive: [1] 0.01 | [2] 0.052 | [3] 0.014 | [4] -0.014 | [5] -0.01

DNAH11 (UniProt Q96DT5)
inactive: [1] 0.047 | [2] -0.387 | [3] 0.089 | [4] -0.021 | [5] 0.092

DMXL1 (UniProt Q9Y485)
inactive: [1] -0.017 | [2] 0.003 | [3] 0.071 | [4] -0.016 | [5] -0.05

DLGAP5 (UniProt Q15398)
inactive: [1] 0.015 | [2] -0.029 | [3] -0.013 | [4] 0.003 | [5] 0.016

DENND4A isoform 2 (UniProt Q7Z401)
inactive: [1] -0.206 | [2] 0.042 | [3] 0.061 | [4] 0.148 | [5] 0.019

DMD (UniProt P11532)
inactive: [1] -0.016 | [2] 0.023 | [3] 0.086 | [4] -0.023 | [5] 0.023

DHCR24 (UniProt Q15392)
inactive: [1] 0.099 | [2] -0.035 | [3] 0.14 | [4] 0.036 | [5] -0.012

DLG2 isoform 2 (UniProt Q15700)
inactive: [1] -0.05 | [2] 0.032 | [3] 0.098 | [4] -0.039 | [5] 0.051

DDX23 (UniProt Q9BUQ8)
inactive: [1] 0.141 | [2] -0.229 | [3] -0.218 | [4] 0.171 | [5] 0.047

DES (UniProt P17661)
inactive: [1] 0.164 | [2] 0.334 | [3] 0.025 | [4] 0.021 | [5] 0

DNAJA1 (UniProt P31689)
inactive: [1] 0.01 | [2] 0.03 | [3] 0.037 | [4] -0.033 | [5] 0.029

DKC1 (UniProt O60832)
inactive: [1] 0.032 | [2] -0.098 | [3] -0.047 | [4] 0.063 | [5] 0.055

DHX16 (UniProt O60231)
inactive: [1] -0.024 | [2] 0.007 | [3] 0.059 | [4] -0.003 | [5] 0.017

DNAH5 (UniProt Q8TE73)
inactive: [1] 0.074 | [2] 0.023 | [3] 0.08 | [4] 0.139 | [5] 0.062

DHX36 (UniProt Q9H2U1)
inactive: [1] 0.037 | [2] -0.087 | [3] -0.094 | [4] 0.091 | [5] 0.015

DDA1 (UniProt Q9BW61)
inactive: [1] 0.018 | [2] -0.009 | [3] 0.074 | [4] -0.026 | [5] 0.054

DENND4B (UniProt O75064)
inactive: [1] -0.002 | [2] -0.04 | [3] 0.032 | [4] 0.087 | [5] -0.011

DIAPH1 (UniProt O60610)
inactive: [1] -0.073 | [2] -0.027 | [3] 0.026 | [4] 0.049 | [5] -0.018

DIP2A (UniProt Q14689)
inactive: [1] -0.03 | [2] 0.042 | [3] -0.149 | [4] 0.019 | [5] -0.078

DNAH9 (UniProt Q9NYC9)
inactive: [1] 0.024 | [2] 0.046 | [3] 0.011 | [4] 0.031 | [5] 0.021

Copied from the entries so far (2 entries):
DIP2A (UniProt Q14689)
inactive: [1] -0.03 | [2] 0.042 | [3] -0.149 | [4] 0.019 | [5] -0.078

DNAH9 (UniProt Q9NYC9)
inactive: [1] 0.024 | [2] 0.046 | [3] 0.011 | [4] 0.031 | [5] 0.021

More entries.

DIP2B (UniProt Q9P265)
inactive: [1] 0 | [2] 0.059 | [3] 0.012 | [4] -0.035 | [5] -0.003

DGUOK (UniProt Q16854)
inactive: [1] 0.12 | [2] 0.054 | [3] 0.069 | [4] 0.034 | [5] 0.046

DHX9 (UniProt Q08211)
inactive: [1] 0.047 | [2] -0.135 | [3] -0.154 | [4] 0.14 | [5] 0.027
